# Values from PubChem BioAssay AID1259254 (NCATS, 2017)
# Test: 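Finding genes that stop cells copying their DNA twice in one cycle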 (primary screen)
# System: human HCT116 colorectal cancer cells
# Reagents: single siRNA against human genes
# Timing: 3 days
# Read-out: 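Nuclei stained with Hoechst and imaged; cell-cycle phase assigned by DNA content; G2 share scaled per plate, non-targeting siRNA 0%, GMNN siRNA 100%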
# Direction: G2 robust z-score and G2 cells, % of GMNN control: higher = more G2 cells, more excess DNA replication; raw share of cells in G2: higher = larger share of cells with G2 DNA content
# Hit rule: 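Active siRNAs have a G2 robust z of 5 or more median absolute deviations over the median, which in these data means about 38% or higher of GMNN control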
# The whole screen tested about 59,000 reagents; this is a part drawn at random. About 1,550 of all reagents (2.6%) count as active. 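G2 share is only a proxy for re-replication; each gene was hit by three separate siRNAs, and active genes were retested.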 The raw values are shown without normalisation. Reagents against one gene are numbered here. The record does not give: the amount of reagent.
Gene,reagent,G2 robust z-score,"G2 cells, % of GMNN control",raw share of cells in G2 (%),activity call
CALML4,1,0.069,3.45,5.55,inactive
CALML4,2,2.28,19,8.95,inactive
CALML4,3,-0.369,0.373,3.04,inactive
GLYATL3,1,0.703,7.91,6.48,inactive
GLYATL3,2,1.02,10.2,7.82,inactive
GLYATL3,3,-0.297,0.877,5.01,inactive
SLC25A4,1,3.04,24.4,13,inactive
SLC25A4,2,3.27,26,14.3,inactive
SLC25A4,3,0.761,8.32,7.09,inactive
GAPDH,1,5.29,40.2,19.8,active
GAPDH,2,-1.01,-4.11,3.7,inactive
GAPDH,3,0.449,6.13,5.84,inactive
S100A7A,1,0.929,9.51,6.36,inactive
S100A7A,2,-0.231,1.34,3.63,inactive
S100A7A,3,1.05,10.4,7.16,inactive
PDZD9,1,-0.125,2.09,4.33,inactive
PDZD9,2,0.758,8.3,5.97,inactive
PDZD9,3,1.03,10.2,6.44,inactive
SSTR1,1,0.27,4.87,7.58,inactive
SSTR1,2,-1.18,-5.37,2.64,inactive
SSTR1,3,-0.514,-0.648,3.07,inactive
APOBEC3F,1,0.959,9.71,8.26,inactive
APOBEC3F,2,-0.543,-0.853,4.34,inactive
APOBEC3F,3,7.01,52.3,30.9,active
ECSIT,1,1.42,12.9,9.02,inactive
ECSIT,2,-1,-4.09,2.23,inactive
ECSIT,3,0.193,4.32,7.91,inactive
TP53INP2,1,-0.903,-3.39,1.96,inactive
TP53INP2,2,-0.0507,2.61,5.38,inactive
TP53INP2,3,0.158,4.08,6.41,inactive
OR5A2,1,-0.597,-1.23,3.13,inactive
OR5A2,2,-0.721,-2.11,2.41,inactive
OR5A2,3,7.85,58.2,21.8,active
BUD13,1,0.131,3.89,5.4,inactive
BUD13,2,0.489,6.41,5.36,inactive
BUD13,3,-0.421,0.0069,2.41,inactive
TFF3,1,0.233,4.6,7.17,inactive
TFF3,2,-0.218,1.43,4.46,inactive
TFF3,3,-0.414,0.0517,3.37,inactive
WDR35,1,-1.13,-5.01,2.37,inactive
WDR35,2,-0.602,-1.27,3.85,inactive
WDR35,3,-0.32,0.718,3.26,inactive
ZBTB17,1,-1.03,-4.3,2.1,inactive
ZBTB17,2,0.164,4.12,7.82,inactive
ZBTB17,3,-0.128,2.07,4.2,inactive
ADAMTS1,1,1.82,15.8,11.1,inactive
ADAMTS1,2,-0.552,-0.915,4.58,inactive
ADAMTS1,3,0.54,6.77,6.43,inactive
RPL6P16,1,-0.767,-2.43,2.62,inactive
RPL6P16,2,-0.721,-2.1,2.13,inactive
RPL6P16,3,-0.773,-2.47,2.67,inactive
DZANK1,1,-0.258,1.15,3.5,inactive
DZANK1,2,-0.798,-2.65,3.51,inactive
DZANK1,3,-0.783,-2.54,3.08,inactive
MRPL37,1,0.0256,3.15,5.06,inactive
MRPL37,2,-0.157,1.86,5.25,inactive
MRPL37,3,-0.532,-0.779,3.01,inactive
CNTNAP1,1,-0.329,0.653,4.94,inactive
CNTNAP1,2,2.12,17.9,11.6,inactive
CNTNAP1,3,1.05,10.3,9.24,inactive
ADGRF1,1,0.0717,3.47,4.33,inactive
ADGRF1,2,2.23,18.7,12.5,inactive
ADGRF1,3,0.304,5.1,6.3,inactive
ZNF774,1,-0.725,-2.13,2.36,inactive
ZNF774,2,-0.971,-3.87,1.82,inactive
ZNF774,3,-0.184,1.67,4.11,inactive
FAAH2,1,-0.369,0.373,3.74,inactive
FAAH2,2,-0.393,0.204,3.03,inactive
FAAH2,3,0.448,6.12,4.7,inactive
TMEM123,1,0.752,8.26,9.51,inactive
TMEM123,2,0.742,8.19,8.48,inactive
TMEM123,3,-0.472,-0.351,4.35,inactive
H2BC7,1,1.51,13.6,11.2,inactive
H2BC7,2,-0.162,1.83,4.62,inactive
H2BC7,3,-0.592,-1.2,2.92,inactive
PDZD11,1,-0.0374,2.7,4.89,inactive
PDZD11,2,1.51,13.6,9.7,inactive
PDZD11,3,2.14,18,8.93,inactive
SAP30L,1,1.93,16.5,11.3,inactive
SAP30L,2,-1.16,-5.19,2.03,inactive
SAP30L,3,-1.57,-8.1,0.162,inactive
VDAC2P5,1,1.64,14.5,8.61,inactive
VDAC2P5,2,-0.313,0.768,3.29,inactive
VDAC2P5,3,-0.747,-2.29,2.91,inactive
LSP1P3,1,-0.553,-0.92,2.84,inactive
LSP1P3,2,-0.784,-2.55,3.09,inactive
LSP1P3,3,2.94,23.6,11.2,inactive
